The list shows a part of the results.
The targets below were run with CC1=C(C2=C(C=C1)C(=O)C3=CC=CC=C3N2CCCN)C (assay: log2 fold change, soluble protein after heating vs DMSO (PISA); higher = thermal stabilisation; K562 lysate, 10 uM; active = over 0.2 and 3.5 SD of the protein, either way, in both replicates (recomputed)).
Outline: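 Pellets of K562 cells were dounce-homogenised in PBS pH 7.4 with 1 mM MgCl2, and the crude extract was held at 1 mg/mL protein for a 30 min treatment with 10 μM compound. Aliquots were heated for 3 min over 48°C-58°C and pooled before NP-40 was added to 0.5% at 4°C. The supernatant from 21,000xg for 90 min was quantified by TMTpro 16plex LC-MS/MS with channel sums equalised. Values are reported from duplicates as log-two fold change in thermal stability relative to solvent controls.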

The chains behind the UniProt entries cited, without tags or fusion partners. Where a name states a change or a piece, a line headed by the entry shows the natural chain unless it says otherwise.
UniProt Q9H7C9: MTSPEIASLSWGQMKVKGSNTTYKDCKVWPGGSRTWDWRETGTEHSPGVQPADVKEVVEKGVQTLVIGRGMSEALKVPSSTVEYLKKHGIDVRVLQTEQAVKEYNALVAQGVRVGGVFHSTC
UniProt Q96QU6: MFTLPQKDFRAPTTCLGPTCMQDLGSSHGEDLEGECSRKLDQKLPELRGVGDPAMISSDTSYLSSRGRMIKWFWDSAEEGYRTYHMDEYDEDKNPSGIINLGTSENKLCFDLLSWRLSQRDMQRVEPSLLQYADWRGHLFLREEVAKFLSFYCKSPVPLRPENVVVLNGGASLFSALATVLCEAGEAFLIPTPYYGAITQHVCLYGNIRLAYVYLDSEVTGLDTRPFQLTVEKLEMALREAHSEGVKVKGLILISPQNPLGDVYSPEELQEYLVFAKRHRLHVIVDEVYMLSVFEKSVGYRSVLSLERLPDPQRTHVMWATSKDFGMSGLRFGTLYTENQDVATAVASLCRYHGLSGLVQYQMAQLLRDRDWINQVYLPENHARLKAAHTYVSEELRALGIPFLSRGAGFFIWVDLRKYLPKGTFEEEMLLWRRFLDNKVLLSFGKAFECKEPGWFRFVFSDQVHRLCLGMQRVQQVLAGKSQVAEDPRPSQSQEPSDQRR
UniProt Q9NX38: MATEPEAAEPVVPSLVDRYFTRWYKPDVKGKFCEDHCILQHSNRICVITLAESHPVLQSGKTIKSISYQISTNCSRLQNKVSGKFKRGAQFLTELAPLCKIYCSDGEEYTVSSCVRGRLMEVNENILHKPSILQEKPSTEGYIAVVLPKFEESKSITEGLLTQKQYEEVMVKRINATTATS
UniProt Q86V21: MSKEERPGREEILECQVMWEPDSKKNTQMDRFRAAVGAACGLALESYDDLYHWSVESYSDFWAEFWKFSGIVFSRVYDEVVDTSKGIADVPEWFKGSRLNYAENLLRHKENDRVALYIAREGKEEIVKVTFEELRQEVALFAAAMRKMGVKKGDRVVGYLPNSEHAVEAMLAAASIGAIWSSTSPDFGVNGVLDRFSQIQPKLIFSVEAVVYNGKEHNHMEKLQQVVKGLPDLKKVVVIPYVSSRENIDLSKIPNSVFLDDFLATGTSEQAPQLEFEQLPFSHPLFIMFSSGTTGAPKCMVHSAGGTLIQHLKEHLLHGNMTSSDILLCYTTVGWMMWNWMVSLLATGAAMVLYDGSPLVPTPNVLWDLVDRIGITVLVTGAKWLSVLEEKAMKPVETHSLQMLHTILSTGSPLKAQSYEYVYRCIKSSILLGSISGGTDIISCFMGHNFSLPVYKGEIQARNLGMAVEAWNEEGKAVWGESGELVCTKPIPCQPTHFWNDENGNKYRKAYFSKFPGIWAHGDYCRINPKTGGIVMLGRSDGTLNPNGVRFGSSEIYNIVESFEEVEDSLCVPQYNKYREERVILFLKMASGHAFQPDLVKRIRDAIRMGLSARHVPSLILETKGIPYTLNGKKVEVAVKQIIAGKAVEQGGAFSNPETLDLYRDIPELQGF
UniProt O75027: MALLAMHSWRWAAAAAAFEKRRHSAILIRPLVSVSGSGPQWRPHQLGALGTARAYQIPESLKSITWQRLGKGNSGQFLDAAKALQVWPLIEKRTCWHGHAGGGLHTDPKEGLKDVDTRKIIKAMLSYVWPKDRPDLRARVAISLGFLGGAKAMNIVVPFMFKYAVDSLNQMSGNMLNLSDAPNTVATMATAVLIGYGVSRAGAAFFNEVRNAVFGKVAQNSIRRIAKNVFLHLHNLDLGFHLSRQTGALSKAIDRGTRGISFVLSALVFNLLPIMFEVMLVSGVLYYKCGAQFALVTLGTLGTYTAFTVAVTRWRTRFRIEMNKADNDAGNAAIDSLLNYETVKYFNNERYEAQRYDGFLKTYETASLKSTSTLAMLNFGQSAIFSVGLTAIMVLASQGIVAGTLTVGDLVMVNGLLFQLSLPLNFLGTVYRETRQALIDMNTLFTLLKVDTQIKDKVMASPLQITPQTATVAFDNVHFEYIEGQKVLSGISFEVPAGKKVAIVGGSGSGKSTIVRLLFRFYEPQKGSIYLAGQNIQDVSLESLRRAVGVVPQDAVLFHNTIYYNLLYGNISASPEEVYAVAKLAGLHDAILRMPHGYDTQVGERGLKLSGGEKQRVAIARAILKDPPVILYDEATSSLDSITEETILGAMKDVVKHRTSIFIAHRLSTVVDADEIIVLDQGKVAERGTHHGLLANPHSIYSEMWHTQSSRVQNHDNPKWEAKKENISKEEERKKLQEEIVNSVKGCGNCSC
UniProt P49748: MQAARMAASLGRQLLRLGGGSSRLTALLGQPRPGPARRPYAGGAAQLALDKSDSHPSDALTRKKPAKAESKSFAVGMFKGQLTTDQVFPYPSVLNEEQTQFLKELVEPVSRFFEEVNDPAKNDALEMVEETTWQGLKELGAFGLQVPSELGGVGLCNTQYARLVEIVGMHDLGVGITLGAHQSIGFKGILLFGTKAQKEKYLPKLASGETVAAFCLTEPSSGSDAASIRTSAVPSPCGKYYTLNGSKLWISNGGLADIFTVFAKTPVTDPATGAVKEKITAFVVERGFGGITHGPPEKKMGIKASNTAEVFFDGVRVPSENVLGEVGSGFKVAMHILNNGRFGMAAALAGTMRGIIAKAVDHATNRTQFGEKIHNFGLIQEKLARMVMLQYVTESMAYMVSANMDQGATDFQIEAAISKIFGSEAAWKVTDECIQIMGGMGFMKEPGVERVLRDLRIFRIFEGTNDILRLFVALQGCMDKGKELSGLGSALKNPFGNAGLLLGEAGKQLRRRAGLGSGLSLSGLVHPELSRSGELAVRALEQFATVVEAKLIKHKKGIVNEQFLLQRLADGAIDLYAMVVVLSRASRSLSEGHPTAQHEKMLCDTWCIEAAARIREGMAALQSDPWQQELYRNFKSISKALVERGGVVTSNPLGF
UniProt O15439: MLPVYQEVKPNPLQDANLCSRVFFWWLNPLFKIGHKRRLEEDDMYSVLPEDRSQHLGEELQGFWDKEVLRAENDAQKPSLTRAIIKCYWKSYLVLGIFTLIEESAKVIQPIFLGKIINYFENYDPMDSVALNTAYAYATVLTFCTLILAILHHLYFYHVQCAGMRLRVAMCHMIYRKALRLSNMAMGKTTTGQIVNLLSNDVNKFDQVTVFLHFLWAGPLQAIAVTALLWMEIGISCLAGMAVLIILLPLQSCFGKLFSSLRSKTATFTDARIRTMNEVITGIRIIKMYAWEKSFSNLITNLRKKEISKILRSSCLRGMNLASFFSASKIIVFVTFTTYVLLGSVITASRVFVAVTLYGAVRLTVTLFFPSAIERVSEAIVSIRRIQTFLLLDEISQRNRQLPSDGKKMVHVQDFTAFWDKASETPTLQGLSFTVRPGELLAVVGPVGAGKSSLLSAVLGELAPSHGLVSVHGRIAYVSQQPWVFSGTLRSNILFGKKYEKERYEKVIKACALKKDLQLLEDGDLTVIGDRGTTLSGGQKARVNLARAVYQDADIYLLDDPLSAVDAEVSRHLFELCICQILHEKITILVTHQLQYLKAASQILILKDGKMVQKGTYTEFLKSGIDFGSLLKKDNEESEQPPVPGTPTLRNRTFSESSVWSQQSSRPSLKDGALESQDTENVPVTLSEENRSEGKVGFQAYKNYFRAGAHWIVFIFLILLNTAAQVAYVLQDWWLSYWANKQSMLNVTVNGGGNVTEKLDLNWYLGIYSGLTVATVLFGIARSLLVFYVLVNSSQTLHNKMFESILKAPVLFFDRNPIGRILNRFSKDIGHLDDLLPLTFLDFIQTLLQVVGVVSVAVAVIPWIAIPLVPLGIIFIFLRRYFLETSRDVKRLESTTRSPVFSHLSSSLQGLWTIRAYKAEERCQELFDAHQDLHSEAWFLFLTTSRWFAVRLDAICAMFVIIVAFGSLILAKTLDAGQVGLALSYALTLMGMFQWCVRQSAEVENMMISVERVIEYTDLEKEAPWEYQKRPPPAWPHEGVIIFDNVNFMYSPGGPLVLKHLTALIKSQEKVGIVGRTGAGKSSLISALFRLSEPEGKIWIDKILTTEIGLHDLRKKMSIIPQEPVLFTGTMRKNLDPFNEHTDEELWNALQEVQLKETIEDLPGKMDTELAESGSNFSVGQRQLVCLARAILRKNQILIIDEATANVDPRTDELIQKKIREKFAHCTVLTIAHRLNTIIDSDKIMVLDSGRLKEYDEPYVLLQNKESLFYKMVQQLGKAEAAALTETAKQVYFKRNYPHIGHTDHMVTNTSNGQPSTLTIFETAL
UniProt Q9UKV3: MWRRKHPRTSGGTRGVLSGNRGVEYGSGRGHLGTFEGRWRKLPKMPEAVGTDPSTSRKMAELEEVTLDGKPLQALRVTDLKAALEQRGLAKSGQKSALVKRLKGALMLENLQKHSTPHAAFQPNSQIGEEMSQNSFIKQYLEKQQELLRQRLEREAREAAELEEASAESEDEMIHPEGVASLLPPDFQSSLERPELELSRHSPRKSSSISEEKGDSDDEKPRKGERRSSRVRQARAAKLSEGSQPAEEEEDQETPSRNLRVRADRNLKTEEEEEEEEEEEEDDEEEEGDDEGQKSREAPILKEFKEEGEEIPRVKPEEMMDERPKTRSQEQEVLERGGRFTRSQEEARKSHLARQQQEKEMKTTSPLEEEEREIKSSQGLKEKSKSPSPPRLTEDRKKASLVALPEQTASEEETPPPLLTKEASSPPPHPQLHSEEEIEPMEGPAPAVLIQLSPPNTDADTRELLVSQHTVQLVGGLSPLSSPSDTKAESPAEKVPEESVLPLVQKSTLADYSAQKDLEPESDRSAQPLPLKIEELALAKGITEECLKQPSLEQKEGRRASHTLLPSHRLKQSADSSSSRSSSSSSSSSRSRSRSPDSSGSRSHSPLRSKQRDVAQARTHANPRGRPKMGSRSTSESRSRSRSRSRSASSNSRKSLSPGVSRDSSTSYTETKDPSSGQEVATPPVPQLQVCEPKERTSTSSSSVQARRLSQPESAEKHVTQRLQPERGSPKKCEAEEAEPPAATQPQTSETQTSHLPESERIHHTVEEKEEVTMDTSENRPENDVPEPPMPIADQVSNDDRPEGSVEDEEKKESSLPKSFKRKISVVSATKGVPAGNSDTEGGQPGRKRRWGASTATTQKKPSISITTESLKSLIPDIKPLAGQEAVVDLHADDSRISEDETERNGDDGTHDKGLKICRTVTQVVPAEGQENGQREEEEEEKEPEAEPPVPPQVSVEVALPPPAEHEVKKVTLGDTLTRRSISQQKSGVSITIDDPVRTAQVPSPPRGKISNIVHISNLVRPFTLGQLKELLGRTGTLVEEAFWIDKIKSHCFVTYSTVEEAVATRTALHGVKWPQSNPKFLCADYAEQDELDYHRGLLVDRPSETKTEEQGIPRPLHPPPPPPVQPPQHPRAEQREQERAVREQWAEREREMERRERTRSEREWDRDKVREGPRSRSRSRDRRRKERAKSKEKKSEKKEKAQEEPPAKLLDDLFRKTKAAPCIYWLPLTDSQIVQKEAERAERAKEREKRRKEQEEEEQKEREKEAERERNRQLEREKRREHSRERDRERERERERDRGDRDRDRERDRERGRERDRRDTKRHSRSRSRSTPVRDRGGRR
UniProt P49588, whole entry, looked up: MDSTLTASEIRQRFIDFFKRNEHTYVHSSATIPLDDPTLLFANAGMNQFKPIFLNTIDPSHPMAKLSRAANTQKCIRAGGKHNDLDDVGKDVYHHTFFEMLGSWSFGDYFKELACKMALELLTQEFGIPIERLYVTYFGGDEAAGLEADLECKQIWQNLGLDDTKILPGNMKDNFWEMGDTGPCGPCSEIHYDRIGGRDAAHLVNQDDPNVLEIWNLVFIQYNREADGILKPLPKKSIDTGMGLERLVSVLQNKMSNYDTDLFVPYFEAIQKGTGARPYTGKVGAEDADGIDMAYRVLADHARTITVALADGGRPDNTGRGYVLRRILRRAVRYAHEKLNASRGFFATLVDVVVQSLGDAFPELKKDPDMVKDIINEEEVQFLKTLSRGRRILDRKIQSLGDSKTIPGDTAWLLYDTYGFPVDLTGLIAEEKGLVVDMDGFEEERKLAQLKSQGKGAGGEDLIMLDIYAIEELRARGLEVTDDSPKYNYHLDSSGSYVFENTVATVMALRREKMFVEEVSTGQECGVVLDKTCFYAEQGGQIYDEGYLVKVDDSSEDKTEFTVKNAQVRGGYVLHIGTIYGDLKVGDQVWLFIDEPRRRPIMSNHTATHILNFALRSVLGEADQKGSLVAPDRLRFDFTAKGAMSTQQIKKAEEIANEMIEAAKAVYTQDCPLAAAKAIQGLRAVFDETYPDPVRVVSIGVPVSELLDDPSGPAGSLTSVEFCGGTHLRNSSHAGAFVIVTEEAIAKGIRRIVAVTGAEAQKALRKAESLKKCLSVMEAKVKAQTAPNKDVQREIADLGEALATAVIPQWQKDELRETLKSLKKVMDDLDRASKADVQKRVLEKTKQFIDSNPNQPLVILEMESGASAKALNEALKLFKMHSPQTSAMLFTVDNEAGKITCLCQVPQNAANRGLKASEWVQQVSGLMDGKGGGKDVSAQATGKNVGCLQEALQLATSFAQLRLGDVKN

Target	log2 fold change
AAK1, A0A096LP25	inactive: -0.056
AAMDC (UniProt Q9H7C9)	inactive: 0.029
ACIN1 (UniProt E7EQT4)	inactive: -0.052
ACCS (UniProt Q96QU6)	inactive: -0.141
A0A0B4J2A0, A0A0B4J2A0	inactive: -0.018
ABL1 isoform 2 (UniProt P00519)	inactive: -0.01
ABITRAM (UniProt Q9NX38)	inactive: -0.049
AACS (UniProt Q86V21)	inactive: -0.027
ABCF2 isoform 2 (UniProt Q9UG63)	inactive: -0.008
ACACA isoform 4 (UniProt Q13085)	inactive: -0.002
ABCB7 isoform 2 (UniProt O75027)	inactive: 0.004
ACADVL isoform 3 (UniProt P49748)	inactive: -0.012
ABCC4 (UniProt O15439)	inactive: -0.002
ABCD3 (UniProt P28288)	inactive: -0.096
ABRAXAS2 (UniProt Q15018)	inactive: -0.01
ACBD3 (UniProt Q9H3P7)	inactive: 0
ACIN1 isoform 5 (UniProt Q9UKV3)	inactive: -0.001
A2M (UniProt P01023)	inactive: -0.013
AARS (UniProt P49588)	inactive: 0.035
ABI1 isoform 9 (UniProt Q8IZP0)	inactive: -0.008
AATF (UniProt Q9NY61)	inactive: -0.027
AAGAB (UniProt Q6PD74)	inactive: 0.013

A different layout for some results above:
Target,log2 fold change
ACCS (UniProt Q96QU6),inactive: -0.141
"A0A0B4J2A0, A0A0B4J2A0",inactive: -0.018

Source: the supplement of paper PMC10849652
